PubChem BioAssay AID652272 | Drosophila RNAi Screening Center – 2013

- Test: 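Genes whose knock-down decreases or increases Hedgehog reporter output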 (primary screen)
- Cells: Drosophila clone 8 (Cl8) cells
- Reagents: long dsRNA against Drosophila genes
- Measured: 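Plate reader light from a firefly reporter under a ptc promoter fragment that responds to Hedgehog, with Renilla light as transfection reference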
- Direction: firefly Hh reporter signal: higher = more ptc reporter light; Renilla reference signal: higher = more Renilla control light
- Rule for the call: 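Called a hit if the two-replicate mean z-score lies below -2 or above +3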
- Meaning of the calls: active = hit: reporter lowered or raised; inactive = not a hit
In all, the deposit lists about 21,000 reagents; shown is an unselected part of those that have a named target and a result. In the full data, 503 (2.4%) are marked active. 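Raw plate light values, not normalised; calls rest on replicate z-scores that were not deposited; hits include reporter decreases as well as increases.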 Unmarked entries are inactive. Names joined by + are all predicted targets of the reagent. Reagent sequences are not shown. Not given: the amount of reagent, the time to read-out.

Silencing of alpha-Cat [DRSC11917] resulted in: firefly Hh reporter signal, replicate 1 = 1.68e5; firefly Hh reporter signal, replicate 2 = 5.41e5; firefly Hh reporter signal, replicate 3 = 1.10e5; Renilla reference signal, replicate 1 = 6212; Renilla reference signal, replicate 2 = 34304. Silencing of dpn [DRSC07605] resulted in: firefly Hh reporter signal, replicate 1 = 75818; firefly Hh reporter signal, replicate 2 = 29699; Renilla reference signal, replicate 1 = 2020; Renilla reference signal, replicate 2 = 3237. Knock-down of CG18808 [DRSC08539] resulted in: firefly Hh reporter signal, replicate 1 = 52321; firefly Hh reporter signal, replicate 2 = 53350; Renilla reference signal, replicate 1 = 6101; Renilla reference signal, replicate 2 = 4108. For eIF4E3 [DRSC10952], the entry reads firefly Hh reporter signal, replicate 1 = 1.02e5; firefly Hh reporter signal, replicate 2 = 87441; Renilla reference signal, replicate 1 = 5040; Renilla reference signal, replicate 2 = 3091. Syngr [DRSC06003] gave firefly Hh reporter signal, replicate 1 = 94295; firefly Hh reporter signal, replicate 2 = 66224; Renilla reference signal, replicate 1 = 2592; Renilla reference signal, replicate 2 = 5819. Against P32 [DRSC06988], the entry reads firefly Hh reporter signal, replicate 1 = 73062; firefly Hh reporter signal, replicate 2 = 83591; Renilla reference signal, replicate 1 = 3766; Renilla reference signal, replicate 2 = 3457.

For Dfd [DRSC12593], the values are firefly Hh reporter signal, replicate 1 = 71145; firefly Hh reporter signal, replicate 2 = 1.05e5; Renilla reference signal, replicate 1 = 2965; Renilla reference signal, replicate 2 = 3472. Against TM9SF3 [DRSC09747] the deposit lists firefly Hh reporter signal, replicate 1 = 32536; firefly Hh reporter signal, replicate 2 = 44968; Renilla reference signal, replicate 1 = 3824; Renilla reference signal, replicate 2 = 3418. CG42710 [DRSC01034] scored firefly Hh reporter signal, replicate 1 = 4.74e5; firefly Hh reporter signal, replicate 2 = 1.63e5; Renilla reference signal, replicate 1 = 23889; Renilla reference signal, replicate 2 = 5943. Taf13 [DRSC02106] showed firefly Hh reporter signal, replicate 1 = 51063; firefly Hh reporter signal, replicate 2 = 27968; Renilla reference signal, replicate 1 = 1570; Renilla reference signal, replicate 2 = 3644. For Hr78 [DRSC11866] the deposit lists firefly Hh reporter signal, replicate 1 = 1.22e5; firefly Hh reporter signal, replicate 2 = 93162; Renilla reference signal, replicate 1 = 4410; Renilla reference signal, replicate 2 = 3334. With knock-down of CkIIalpha [DRSC11946], the record shows firefly Hh reporter signal, replicate 1 = 37996; firefly Hh reporter signal, replicate 2 = 45243; Renilla reference signal, replicate 1 = 1804; Renilla reference signal, replicate 2 = 1819.

CG14187 [DRSC10186] showed firefly Hh reporter signal, replicate 1 = 81472; firefly Hh reporter signal, replicate 2 = 1.14e5; Renilla reference signal, replicate 1 = 1911; Renilla reference signal, replicate 2 = 2960. Depletion of Trax [DRSC15709] came out at: firefly Hh reporter signal, replicate 1 = 1.03e5; firefly Hh reporter signal, replicate 2 = 68915; Renilla reference signal, replicate 1 = 4647; Renilla reference signal, replicate 2 = 1731. Against Pcd [DRSC16785] the deposit lists firefly Hh reporter signal, replicate 1 = 1.20e5; firefly Hh reporter signal, replicate 2 = 88490; Renilla reference signal, replicate 1 = 4150; Renilla reference signal, replicate 2 = 2378. After knock-down of CG7730 [DRSC10909], the record shows firefly Hh reporter signal, replicate 1 = 1.11e5; firefly Hh reporter signal, replicate 2 = 95752; Renilla reference signal, replicate 1 = 4632; Renilla reference signal, replicate 2 = 3511. Knock-down of CG4098 [DRSC10399] resulted in: firefly Hh reporter signal, replicate 1 = 1.73e5; Renilla reference signal, replicate 1 = 5517; Renilla reference signal, replicate 2 = 5125. For frj [DRSC03250], the entry reads firefly Hh reporter signal, replicate 1 = 36267; firefly Hh reporter signal, replicate 2 = 64476; Renilla reference signal, replicate 1 = 2288; Renilla reference signal, replicate 2 = 3002.

Against Prosalpha1R + Prosalpha1 [DRSC07515] the deposit lists firefly Hh reporter signal, replicate 1 = 38208; firefly Hh reporter signal, replicate 2 = 29920; Renilla reference signal, replicate 1 = 2480; Renilla reference signal, replicate 2 = 2156. Obp83b [DRSC12360] gave firefly Hh reporter signal, replicate 1 = 84824; firefly Hh reporter signal, replicate 2 = 80960; Renilla reference signal, replicate 1 = 3595; Renilla reference signal, replicate 2 = 2998. For CG17751 [DRSC15261], the entry reads firefly Hh reporter signal, replicate 1 = 8.14e5; firefly Hh reporter signal, replicate 2 = 2.11e5; Renilla reference signal, replicate 1 = 44625; Renilla reference signal, replicate 2 = 5592.
